PubChem BioAssay AID652272, Drosophila RNAi Screening Center, 2013

Test: 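Genes whose knock-down decreases or increases Hedgehog reporter output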 (primary screen)
Cell system: Drosophila clone 8 (Cl8) cells
Reagent: long dsRNA against Drosophila genes
Measurement: 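Firefly light from a Hedgehog-responsive ptc promoter reporter and Renilla reference light, both read on a plate reader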
Reading the numbers: firefly Hh reporter signal: higher = more ptc reporter light; Renilla reference signal: higher = more Renilla control light
Call rule: 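Hit when the z-score averaged over two replicates is under -2 or over +3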
Calls: active = hit: reporter lowered or raised; inactive = not a hit
The screen tested about 21,000 reagents; shown is an unselected part of those with a known target gene and a result. Over the whole deposit, 503 (2.4%) were called active. 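Raw plate light values, not normalised; calls rest on replicate z-scores that were not deposited; hits include reporter decreases as well as increases.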 The numbers tell different reagents against one gene apart. A plus sign joins genes that one reagent is predicted to hit. The record does not give: the amount of reagent, the time to read-out.

gene	dsRNA no.	firefly Hh reporter signal, replicate 1	firefly Hh reporter signal, replicate 2	firefly Hh reporter signal, replicate 3	Renilla reference signal, replicate 1	Renilla reference signal, replicate 2	Call
Sulf1 (Sulfated)	1	59328	1.38e5		13036	3018	inactive
Sulf1 (Sulfated)	2	79562	1.07e5		1661	3416	inactive
CG14767	1	80762	52803		4077	2437	inactive
Mapmodulin	1	1.20e5	81607		5622	3497	inactive
CkIIbeta (Casein kinase II beta subunit)	1	56501	1.70e5		2773	9377	inactive
CG4477	1	43181	50307	83047	4188	5864	inactive
CG11357	1	26912	46137		3211	4016	inactive
snsl (snustorr snarlik)	1	1.32e5	55281		3347	5560	inactive
Rbf2 (Retinoblastoma-family protein 2)	1	83318	1.18e5		2027	7980	inactive
ND-B8 (NADH dehydrogenase (ubiquinone) B8 subunit)	1	87883	59381		2253	6442	inactive
prage	1	54784	1.49e5		1147	8548	inactive
prage	2	1.17e5	49148		2907	1704	inactive
prage	3	85697	1.61e5		3383	6999	inactive
prage	4	1.01e5	2.52e5		3147	10272	inactive
TyrRII (Tyramine receptor II)	1	5.06e5	94928		25904	3036	inactive
PH4alphaEFB (prolyl-4-hydroxylase-alpha EFB)	1	99229	94098		1993	2987	inactive
PH4alphaEFB (prolyl-4-hydroxylase-alpha EFB)	2	69944	89460		2624	2374	inactive
CG11756	1	77368	2.31e5		2432	8451	inactive
CG9098	1	2.76e5	8.24e5	1.35e5	9248	43301	inactive
Tim10 + CG42497	1	96407	81160		3976	3133	inactive
CG13972	1	1.01e5	72305		1746	2160	inactive
RpL5 (Ribosomal protein L5)	1	27161	17272		1826	3117	active
Obp58d (Odorant-binding protein 58d)	1	78138	54770		2042	4797	inactive
Tsp29Fb (Tetraspanin 29Fb)	1	1.03e5	46214		2973	6018	inactive
HERC2 (HECT and RLD domain containing protein 2)	1	66354	2.01e5		1379	9493	inactive
fl(2)d (female lethal d)	1	74693	53923		1926	4013	inactive
Arpc5 (Actin-related protein 2/3 complex, subunit 5)	1	76573	73604		1952	2005	inactive

9 entries from above, ordered by “Renilla reference signal, replicate 1”, highest first.
gene	dsRNA no.	firefly Hh reporter signal, replicate 1	firefly Hh reporter signal, replicate 2	firefly Hh reporter signal, replicate 3	Renilla reference signal, replicate 1	Renilla reference signal, replicate 2	Call
Mapmodulin	1	1.20e5	81607		5622	3497	inactive
CG4477	1	43181	50307	83047	4188	5864	inactive
CG14767	1	80762	52803		4077	2437	inactive
snsl (snustorr snarlik)	1	1.32e5	55281		3347	5560	inactive
CG11357	1	26912	46137		3211	4016	inactive
CkIIbeta (Casein kinase II beta subunit)	1	56501	1.70e5		2773	9377	inactive
ND-B8 (NADH dehydrogenase (ubiquinone) B8 subunit)	1	87883	59381		2253	6442	inactive
Rbf2 (Retinoblastoma-family protein 2)	1	83318	1.18e5		2027	7980	inactive
Sulf1 (Sulfated)	2	79562	1.07e5		1661	3416	inactive

The list goes on:
gene	dsRNA no.	firefly Hh reporter signal, replicate 1	firefly Hh reporter signal, replicate 2	firefly Hh reporter signal, replicate 3	Renilla reference signal, replicate 1	Renilla reference signal, replicate 2	Call
CG13737	1	34549	59725	48812	5131	1477	inactive
CG43133	1	5.64e5	2.98e5		37883	7536	inactive
Arp10 (Actin-related protein 10)	1	77130	53923		2052	1388	inactive
CadN2 (Cadherin-N2)	1	1.37e5	63702		3912	6800	inactive
CadN2 (Cadherin-N2)	2	1.08e5	69520		2612	6842	inactive
CadN2 (Cadherin-N2)	3	1.22e5	71740		3371	6061	inactive
CG12477	1	1.16e5			134	2647	inactive
CG3703	1	1.23e5	2.55e5		4762	11461	inactive
CG3703	2	94096	1.81e5		3760	6945	inactive
CG3703	3	82096	1.27e5		3305	5284	inactive
NC2alpha (Negative Cofactor 2alpha)	1	91024	45622		3302	1844	inactive
CG17267	1	5.43e5	85840		29125	6747	inactive
Taf9 (TBP-associated factor 9)	1	90201	78813		2096	1986	inactive
ctrip (circadian trip)	1	69900	66496		3450	3221	active
ctrip (circadian trip)	2	88672	62406		4884	3381	inactive
CG15213	1	73482	82093		8599	6566	inactive
ms(3)76Cc (male sterile (3) 76Cc)	1	1.60e5	1.57e5		5543	4576	inactive
CG17580	1	1.03e5	65924		2131	4322	inactive
ste24b (ste24b prenyl protease type I)	1	67532	81849		1349	5001	inactive
CAP	1	1.89e5	2.84e5		4678	12717	inactive
CAP	2	90080	35885		2704	1112	inactive
CAP	3	1.12e5	48109		2662	4998	inactive
CAP	4	1.01e5	69260		2310	5899	inactive
CAP	5	1.12e5	63440		2458	4508	inactive
CG34266	1	44356	43339		2883	3335	inactive
SLC22A (SLC22A family member)	1	1.02e5	1.36e5		3498	3516	inactive
SLC22A (SLC22A family member)	2	1.22e5	1.84e5		4501	4840	inactive
CG42445	1	1.44e5	1.02e5		6038	4316	inactive
CG17575	1	1.05e5	69625		2519	4727	inactive
Vajk1	1	1.64e5	84802		4530	7808	inactive
